Two molecules from patent EP0903346A1, “SYDNONE IMINE DERIVATIVES” (Chugai Seiyaku Kabushiki Kaisha, priority 1995, dated 1997) can be followed below.

In this data set the test system is rat ischemia-reperfusion model. The experiment in a line: Myocardial necrosis inhibitory effect in rat ischemia-reperfusion model. It counts as in vivo. The settings on record: risk area/left ventricle, mean ± standard error. Here is the method:
Male Sprague Dawley rats weighing 270 to 410 g were anesthetized with sodium pentobarbital (50 mg/kg, i.p.) and fixed in the supine position. A canula was inserted into the trachea of each animal. Then the blood pressure of the animal was measured (AP-621G, Nippon Kohden Corp.) through a polyethylene tube (PE50, Becton Dickinson) inserted into the right femoral artery via a pressure transducer (Life Kit DTS, DX-300, Nippon Kohden Corp.) and the heart rate was determined from the pulse wave (AT-610G, Nippon Kohden Corp.). Two canulae (PE10 and PE50, Becton Dickinson) for injecting the maintenance anesthetic drug (sodium pentobarbital 20 mg/kg/h) and a coloring matter respectively were inserted into the right jugular vein. The left jugular vein was exposed for blood collection. The chest was opened by vertically sectioning the chest region from the third to fifth left ribs about 10 mm apart from the median line under artificial respiration with room air (Harvard respirator, model 683, rate : 60 strokes/min. tidal volume : 10 ml/kg body weight). Then the operative field was enlarged with a wound retractor and the heart sac was peeled off to thereby expose the heart. By using a curved round needle with thread for vascular tract (8mm, 6-0 black blaid silk, Matsuda Medical Industry), a thread of 4 to 5 mm in length was put in the left ventricle in the depth of 2 mm for ligating the coronary artery. After the completion of the operation, the animal was allowed to stand as such for 20 minutes or longer. After confirming that the blood pressure and the heart rate had been stabilized, the experiment was initiated.
In this experiment, use was made of eight groups of rats including: 1) a physiological saline (i.e., the solvent for SIN-1) group; 2) an SIN-1 (3 µg/kg/min) group; 3) another SIN-1 (10 µg/kg/min) group; 4) 1% DMSO-containing physiological saline (adjusted to pH 5 with hydrochloric acid, i.e., the solvent for the compounds of Examples 1 and 2) group; 5) a group of the compound of Example 1 (10 µg/kg/min); 6) another group of the compound of Example 1 (30 µg/kg/min); 7) a group of the compound of Example 2 (3 µg/kg/min); and 8) another group of the compound of Example 2 (10 µg/kg/min). Each drug was intravenously administered continuously for 75 minutes (from 15 minutes before the ligation of the coronary artery to the completion of the reflow) at a rate of 0.95 ml/h. […] After 30-minutes reflow, the risk area (RA) and the necrosis area (NA) were measured.
The risk area and the necrosis area formed by ligating the coronary artery were measured by the double staining method with Evans blue and triphenyltetrazolium chloride (TTC) in the following manner. […]

Where [1] appears, read: 10 µg/kg/min intravenously for 75 minutes.

Each structure is given as a SMILES string.

For the molecule `Cl.N=c1c[n+](N2CCOCC2)[n-]o1` [SIN-1, 3-morpholinosydnonimine hydrochloride, reference compound], the RA/LV reads like this: (3 µg/kg/min intravenously for 75 minutes) 49.0±3.0%; under setting [1], 48.9±4.9%.

Regarding `CN1CCN([n+]2cc([N-]C(=O)CSc3cc(C(C)(C)C)c(O)c(C(C)(C)C)c3)on2)CC1` [Example 1, N-((3,5-Di-t-butyl-4-hydroxyphenylthio)acetyl)-3-(4-methylpiperazin-1-yl)sydnonimine], the RA/LV runs as follows: under setting [1], 34.0±2.6%; (30 µg/kg/min intravenously for 75 minutes) 36.5±3.7%.
